Measurements: paper PMC9779928, “Tartrate resistant acid phosphatase 5 (TRAP5) mediates immune cell recruitment in a murine model of pulmonary bacterial infection” (Frontiers in Immunology, 2022)
No constants are given. Whether binding was seen depends on the method and setting. Binding seen in cells or lysates may run through a third protein. Some entries that bind do so weakly or less than the wild type.

Sequences of proteins named here, by UniProt entry; tags and fusion partners are left off. Residues count along the entry.
UniProt P10451, residues 17-314: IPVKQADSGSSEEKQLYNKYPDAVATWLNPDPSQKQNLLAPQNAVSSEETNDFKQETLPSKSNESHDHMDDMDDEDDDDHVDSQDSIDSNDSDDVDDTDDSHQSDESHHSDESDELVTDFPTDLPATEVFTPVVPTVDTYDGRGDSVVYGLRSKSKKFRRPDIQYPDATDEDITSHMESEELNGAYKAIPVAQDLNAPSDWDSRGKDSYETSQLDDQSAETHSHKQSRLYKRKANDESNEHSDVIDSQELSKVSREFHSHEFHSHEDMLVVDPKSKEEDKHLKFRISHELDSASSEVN
UniProt P13686, residues 22-325: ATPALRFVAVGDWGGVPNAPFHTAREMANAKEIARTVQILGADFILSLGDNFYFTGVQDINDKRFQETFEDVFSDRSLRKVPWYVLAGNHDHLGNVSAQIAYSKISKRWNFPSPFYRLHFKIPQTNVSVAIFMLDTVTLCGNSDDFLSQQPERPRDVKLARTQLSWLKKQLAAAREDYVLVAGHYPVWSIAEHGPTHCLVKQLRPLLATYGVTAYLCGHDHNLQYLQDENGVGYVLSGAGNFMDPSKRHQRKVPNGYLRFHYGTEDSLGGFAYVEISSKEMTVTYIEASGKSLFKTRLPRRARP

Biological target: osteopontin (endogenous in human lung tissue) (human (endogenous in lung tissue)) (UniProt P10451)
Experiment: proximity ligation; Navinci proximity ligation on formalin-fixed paraffin sections of human lung (CF and control donors); rabbit anti-OPN serum and murine monoclonal anti-TRAP5; chromogenic read-out

binding: binds
Substance: tartrate resistant acid phosphatase 5, isoform 5a (endogenous in human lung tissue) (from UniProt P13686 22-325) (enzyme)
